PubChem BioAssay AID504764, Drosophila RNAi Screening Center | 2011

- Test: 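Genome-wide screen for regulators of Notch-driven gene expression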 (primary screen)
- System: Drosophila Kc167 cells
- Knock-down reagent: long dsRNA against Drosophila genes
- Timing: about 5 days (4 days dsRNA, then 24 h after transfection)
- Treatment: transfection of constitutively active membrane-tethered Notch lacking the extracellular domain, read 24 h later
- Read-out: 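Firefly luciferase from an E(spl)m3 reporter with active Notch, plus control-promoter and uninduced reporter wells for normalisation; unnormalised counts, duplicate wells a and b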
- Reading the numbers: induced reporter light, run 1, well a and induced reporter light, run 1, well b: higher = more light from the Notch target reporter with active Notch; control promoter light, run 1, well a and control promoter light, run 1, well b: higher = more light from the viral control promoter (cell number, transfection, viability); uninduced reporter light, run 1, well a: higher = more light from the Notch target reporter without active Notch
- Hit rule: 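Wells with low control signal or poorly matching duplicates excluded; duplicates averaged; per source plate, z beyond ±2 for induced/control log2 ratio or beyond ±1.8 for induced/uninduced marks a hit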
- Meaning of the calls: active = modifier hit (raised or lowered Notch signal); inactive = not a hit
The deposit covers about 22,000 reagents; this is a random part of those with a known target gene and a result. In the full data, 403 (1.9%) were called active. 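Unnormalised raw counts per well; ratio z-scores behind the hit calls and whether each hit raises or lowers signal are not deposited.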 No sequences are given here. Not given: the amount of reagent.

fry [DRSC08993] gave induced reporter light, run 1, well a = 1.88e5; induced reporter light, run 1, well b = 1.52e5; control promoter light, run 1, well a = 1.71e5; control promoter light, run 1, well b = 2.12e5; uninduced reporter light, run 1, well a = 13305; inactive.
fry [DRSC10172] scored induced reporter light, run 1, well a = 1.59e5; induced reporter light, run 1, well b = 1.08e5; control promoter light, run 1, well a = 1.75e5; control promoter light, run 1, well b = 1.52e5; uninduced reporter light, run 1, well a = 7025; inactive.
After knock-down of fry [DRSC10709] the results were induced reporter light, run 1, well a = 1.42e5; induced reporter light, run 1, well b = 1.18e5; control promoter light, run 1, well a = 2.36e5; control promoter light, run 1, well b = 1.91e5; uninduced reporter light, run 1, well a = 8010; inactive.
fry [DRSC10712] showed induced reporter light, run 1, well a = 78630; induced reporter light, run 1, well b = 67305; control promoter light, run 1, well a = 33390; control promoter light, run 1, well b = 16795; uninduced reporter light, run 1, well a = 9755; inactive.
After knock-down of CG3764 [DRSC10375] the results were induced reporter light, run 1, well a = 1.44e5; induced reporter light, run 1, well b = 1.31e5; control promoter light, run 1, well a = 92315; control promoter light, run 1, well b = 98155; uninduced reporter light, run 1, well a = 11000; inactive.
Depletion of CG32606 (retired record) [DRSC19001] came out at: induced reporter light, run 1, well a = 5105; induced reporter light, run 1, well b = 3732; control promoter light, run 1, well a = 5450; control promoter light, run 1, well b = 8875; uninduced reporter light, run 1, well a = 2800; inactive.
After knock-down of CG32606 (retired record) [DRSC19371], the screen gave induced reporter light, run 1, well a = 98890; induced reporter light, run 1, well b = 52780; control promoter light, run 1, well a = 79265; control promoter light, run 1, well b = 69080; uninduced reporter light, run 1, well a = 11238; inactive.
Silencing of CG32606 (retired record) [DRSC19372] resulted in: induced reporter light, run 1, well a = 79300; induced reporter light, run 1, well b = 52530; control promoter light, run 1, well a = 69985; control promoter light, run 1, well b = 64865; uninduced reporter light, run 1, well a = 12525; inactive.
With knock-down of CG32606 (retired record) [DRSC19373], the screen gave induced reporter light, run 1, well a = 81650; induced reporter light, run 1, well b = 58470; control promoter light, run 1, well a = 74250; control promoter light, run 1, well b = 89410; uninduced reporter light, run 1, well a = 10895; inactive.
Knock-down of CG31937 [DRSC00514] gave: induced reporter light, run 1, well a = 1.04e5; induced reporter light, run 1, well b = 1.17e5; control promoter light, run 1, well a = 1.23e5; control promoter light, run 1, well b = 1.15e5; uninduced reporter light, run 1, well a = 8365; inactive.
Depletion of CG6048 [DRSC18398] resulted in: induced reporter light, run 1, well a = 1.67e5; induced reporter light, run 1, well b = 1.68e5; control promoter light, run 1, well a = 3.07e5; control promoter light, run 1, well b = 3.22e5; uninduced reporter light, run 1, well a = 10700; inactive.
After knock-down of Ehbp1 [DRSC06561], the screen gave induced reporter light, run 1, well a = 96685; induced reporter light, run 1, well b = 98315; control promoter light, run 1, well a = 1.97e5; control promoter light, run 1, well b = 2.17e5; uninduced reporter light, run 1, well a = 8450; inactive.
After knock-down of sle [DRSC14557] the results were induced reporter light, run 1, well a = 1.49e5; induced reporter light, run 1, well b = 1.65e5; control promoter light, run 1, well a = 1.15e5; control promoter light, run 1, well b = 1.10e5; uninduced reporter light, run 1, well a = 10610; inactive.
With knock-down of CG9458 [DRSC16495], the screen gave induced reporter light, run 1, well a = 94215; induced reporter light, run 1, well b = 83895; control promoter light, run 1, well a = 93045; control promoter light, run 1, well b = 76260; uninduced reporter light, run 1, well a = 7170; inactive.
Knock-down of LManV [DRSC03223] gave: induced reporter light, run 1, well a = 1.70e5; induced reporter light, run 1, well b = 1.85e5; control promoter light, run 1, well a = 1.82e5; control promoter light, run 1, well b = 1.98e5; uninduced reporter light, run 1, well a = 14355; inactive.
CG32444 [DRSC11677] scored induced reporter light, run 1, well a = 1.21e5; induced reporter light, run 1, well b = 1.25e5; control promoter light, run 1, well a = 71560; control promoter light, run 1, well b = 87270; uninduced reporter light, run 1, well a = 9405; inactive.
NimB1 [DRSC01880] gave induced reporter light, run 1, well a = 2.25e5; induced reporter light, run 1, well b = 2.35e5; control promoter light, run 1, well a = 1.97e5; control promoter light, run 1, well b = 1.95e5; uninduced reporter light, run 1, well a = 16935; inactive.
DCP1 [DRSC04091] showed induced reporter light, run 1, well a = 1.40e5; induced reporter light, run 1, well b = 1.14e5; control promoter light, run 1, well a = 78815; control promoter light, run 1, well b = 75110; uninduced reporter light, run 1, well a = 8735; inactive.
Against Srp54k [DRSC11289], the values are induced reporter light, run 1, well a = 1.51e5; induced reporter light, run 1, well b = 1.26e5; control promoter light, run 1, well a = 1.64e5; control promoter light, run 1, well b = 1.63e5; uninduced reporter light, run 1, well a = 7135; inactive.
CG9154 [DRSC03150] gave induced reporter light, run 1, well a = 1.46e5; induced reporter light, run 1, well b = 1.52e5; control promoter light, run 1, well a = 1.46e5; control promoter light, run 1, well b = 1.65e5; uninduced reporter light, run 1, well a = 15542; inactive.
CG17177 [DRSC10257] scored induced reporter light, run 1, well a = 1.89e5; induced reporter light, run 1, well b = 2.40e5; control promoter light, run 1, well a = 3.92e5; control promoter light, run 1, well b = 4.08e5; uninduced reporter light, run 1, well a = 11305; active.
Knock-down of CG10628 [DRSC02080] resulted in: induced reporter light, run 1, well a = 37095; induced reporter light, run 1, well b = 44645; control promoter light, run 1, well a = 54495; control promoter light, run 1, well b = 45935; uninduced reporter light, run 1, well a = 4095; inactive.
Silencing of pirk [DRSC04269] resulted in: induced reporter light, run 1, well a = 24238; induced reporter light, run 1, well b = 23542; control promoter light, run 1, well a = 20565; control promoter light, run 1, well b = 27680; uninduced reporter light, run 1, well a = 2740; inactive.
After knock-down of CG10505 [DRSC04075] the results were induced reporter light, run 1, well a = 55835; induced reporter light, run 1, well b = 44175; control promoter light, run 1, well a = 44245; control promoter light, run 1, well b = 66620; uninduced reporter light, run 1, well a = 2930; inactive.
